The supplement of paper PMC12823440, “Inhibitors supercharge kinase turnover through native proteolytic circuits” (Nature, 2025)
Where a name gives a salt, the structure may show the parent alone. This is one part of the list. Hit calls seldom repeat between salt and free forms of one compound.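 Kinases were expressed as nanoluciferase fusions in K562 cells and luminescence was read every 4 h between 2 and 18 h as percent of control, DMSO set to 100% and a positive control to 0%. A time point counts as decreased when the signal drops significantly (2 sigma). The hit call is the authors' own, does not follow from the count of time points alone, and its rule is not shown.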

Sequences of proteins named here, by UniProt entry; tags and fusion partners are left off. A change or cut given only in a name is not applied to a line headed by its entry.
UniProt P21860, whole entry: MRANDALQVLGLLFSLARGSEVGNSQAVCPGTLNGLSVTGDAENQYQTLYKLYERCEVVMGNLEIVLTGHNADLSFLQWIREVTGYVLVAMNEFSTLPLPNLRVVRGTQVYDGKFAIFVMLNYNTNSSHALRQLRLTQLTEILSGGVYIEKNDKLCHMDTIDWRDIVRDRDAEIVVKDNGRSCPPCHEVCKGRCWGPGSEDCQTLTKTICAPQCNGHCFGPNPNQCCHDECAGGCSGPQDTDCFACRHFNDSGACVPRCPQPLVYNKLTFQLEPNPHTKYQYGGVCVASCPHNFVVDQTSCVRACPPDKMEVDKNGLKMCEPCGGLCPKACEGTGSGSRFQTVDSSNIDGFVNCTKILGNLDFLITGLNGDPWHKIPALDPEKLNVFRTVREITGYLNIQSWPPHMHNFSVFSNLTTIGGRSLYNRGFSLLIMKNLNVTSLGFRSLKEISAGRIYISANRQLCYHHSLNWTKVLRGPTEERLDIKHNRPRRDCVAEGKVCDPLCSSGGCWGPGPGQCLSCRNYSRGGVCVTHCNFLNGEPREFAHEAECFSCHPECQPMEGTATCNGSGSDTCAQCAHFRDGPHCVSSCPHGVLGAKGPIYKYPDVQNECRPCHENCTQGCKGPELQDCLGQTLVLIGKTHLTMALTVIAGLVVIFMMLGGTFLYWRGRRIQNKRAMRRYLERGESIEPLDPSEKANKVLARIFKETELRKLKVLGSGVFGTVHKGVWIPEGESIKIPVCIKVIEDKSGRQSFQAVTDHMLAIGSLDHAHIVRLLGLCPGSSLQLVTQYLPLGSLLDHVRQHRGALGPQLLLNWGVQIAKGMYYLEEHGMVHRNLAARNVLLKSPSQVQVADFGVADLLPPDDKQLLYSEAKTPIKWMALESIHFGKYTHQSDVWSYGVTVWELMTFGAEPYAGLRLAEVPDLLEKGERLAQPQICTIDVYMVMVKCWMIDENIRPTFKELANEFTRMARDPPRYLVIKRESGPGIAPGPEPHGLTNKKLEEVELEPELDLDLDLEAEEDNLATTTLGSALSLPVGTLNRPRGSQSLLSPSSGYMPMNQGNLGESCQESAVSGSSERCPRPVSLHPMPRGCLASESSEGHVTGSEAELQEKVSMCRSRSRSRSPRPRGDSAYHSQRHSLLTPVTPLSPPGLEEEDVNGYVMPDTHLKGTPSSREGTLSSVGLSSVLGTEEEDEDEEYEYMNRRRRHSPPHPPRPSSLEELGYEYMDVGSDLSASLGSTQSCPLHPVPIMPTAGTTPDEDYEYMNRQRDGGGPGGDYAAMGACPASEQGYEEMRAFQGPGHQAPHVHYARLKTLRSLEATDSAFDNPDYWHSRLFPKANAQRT
UniProt Q15303, whole entry R711C: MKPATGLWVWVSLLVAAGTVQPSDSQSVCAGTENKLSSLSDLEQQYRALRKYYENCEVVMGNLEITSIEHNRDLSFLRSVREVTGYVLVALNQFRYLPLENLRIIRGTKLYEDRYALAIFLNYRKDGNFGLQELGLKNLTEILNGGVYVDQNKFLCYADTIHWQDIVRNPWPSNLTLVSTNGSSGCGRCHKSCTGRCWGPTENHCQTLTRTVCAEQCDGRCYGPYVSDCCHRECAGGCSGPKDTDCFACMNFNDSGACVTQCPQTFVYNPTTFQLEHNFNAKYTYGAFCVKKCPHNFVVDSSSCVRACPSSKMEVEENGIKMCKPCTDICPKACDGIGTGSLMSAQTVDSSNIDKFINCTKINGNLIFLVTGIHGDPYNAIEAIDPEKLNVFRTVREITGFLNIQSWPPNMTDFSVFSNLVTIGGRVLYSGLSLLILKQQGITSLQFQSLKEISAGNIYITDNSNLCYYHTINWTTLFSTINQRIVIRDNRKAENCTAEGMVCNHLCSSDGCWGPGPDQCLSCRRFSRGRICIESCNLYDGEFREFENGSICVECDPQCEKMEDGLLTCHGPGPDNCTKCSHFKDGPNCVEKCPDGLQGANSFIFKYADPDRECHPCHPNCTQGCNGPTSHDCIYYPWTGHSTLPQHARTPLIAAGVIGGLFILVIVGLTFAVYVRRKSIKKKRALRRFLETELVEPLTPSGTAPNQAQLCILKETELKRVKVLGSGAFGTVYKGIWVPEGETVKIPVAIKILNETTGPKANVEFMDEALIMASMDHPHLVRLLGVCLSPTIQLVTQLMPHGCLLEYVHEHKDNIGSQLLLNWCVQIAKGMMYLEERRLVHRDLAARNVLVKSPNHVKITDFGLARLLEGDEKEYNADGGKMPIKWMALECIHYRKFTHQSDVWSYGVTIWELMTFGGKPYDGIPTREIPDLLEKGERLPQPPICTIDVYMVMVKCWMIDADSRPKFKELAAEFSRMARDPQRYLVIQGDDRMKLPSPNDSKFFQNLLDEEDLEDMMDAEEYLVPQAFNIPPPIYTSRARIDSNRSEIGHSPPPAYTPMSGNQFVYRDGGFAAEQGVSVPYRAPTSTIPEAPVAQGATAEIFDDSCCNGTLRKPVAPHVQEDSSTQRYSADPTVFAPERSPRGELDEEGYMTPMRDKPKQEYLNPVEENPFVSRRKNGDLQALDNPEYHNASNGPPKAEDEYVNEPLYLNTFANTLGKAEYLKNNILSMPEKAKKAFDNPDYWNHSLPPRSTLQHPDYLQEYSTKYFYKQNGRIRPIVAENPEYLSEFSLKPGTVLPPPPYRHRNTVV
UniProt P11362, whole entry, looked up: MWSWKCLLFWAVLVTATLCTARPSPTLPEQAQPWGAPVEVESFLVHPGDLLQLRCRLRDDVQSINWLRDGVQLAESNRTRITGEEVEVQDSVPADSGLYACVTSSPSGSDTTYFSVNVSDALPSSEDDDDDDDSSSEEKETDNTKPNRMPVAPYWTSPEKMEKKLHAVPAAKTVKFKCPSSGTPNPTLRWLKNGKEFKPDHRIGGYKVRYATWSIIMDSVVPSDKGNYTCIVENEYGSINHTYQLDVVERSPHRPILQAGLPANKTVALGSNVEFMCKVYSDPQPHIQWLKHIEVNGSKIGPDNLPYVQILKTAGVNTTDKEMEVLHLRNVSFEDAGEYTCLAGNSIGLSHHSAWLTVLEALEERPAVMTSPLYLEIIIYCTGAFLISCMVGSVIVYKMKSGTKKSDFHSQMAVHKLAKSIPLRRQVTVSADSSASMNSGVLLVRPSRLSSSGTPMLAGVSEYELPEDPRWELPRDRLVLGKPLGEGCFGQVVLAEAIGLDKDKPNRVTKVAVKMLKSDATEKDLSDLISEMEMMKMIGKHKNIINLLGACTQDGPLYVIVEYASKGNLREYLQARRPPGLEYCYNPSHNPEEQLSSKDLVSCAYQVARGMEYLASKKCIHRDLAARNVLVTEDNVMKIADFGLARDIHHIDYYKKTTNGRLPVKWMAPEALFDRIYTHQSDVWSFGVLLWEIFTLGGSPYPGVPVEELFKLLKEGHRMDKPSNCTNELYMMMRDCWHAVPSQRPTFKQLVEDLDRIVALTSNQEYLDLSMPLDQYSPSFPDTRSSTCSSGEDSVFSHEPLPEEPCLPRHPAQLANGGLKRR
UniProt P21802, whole entry, looked up: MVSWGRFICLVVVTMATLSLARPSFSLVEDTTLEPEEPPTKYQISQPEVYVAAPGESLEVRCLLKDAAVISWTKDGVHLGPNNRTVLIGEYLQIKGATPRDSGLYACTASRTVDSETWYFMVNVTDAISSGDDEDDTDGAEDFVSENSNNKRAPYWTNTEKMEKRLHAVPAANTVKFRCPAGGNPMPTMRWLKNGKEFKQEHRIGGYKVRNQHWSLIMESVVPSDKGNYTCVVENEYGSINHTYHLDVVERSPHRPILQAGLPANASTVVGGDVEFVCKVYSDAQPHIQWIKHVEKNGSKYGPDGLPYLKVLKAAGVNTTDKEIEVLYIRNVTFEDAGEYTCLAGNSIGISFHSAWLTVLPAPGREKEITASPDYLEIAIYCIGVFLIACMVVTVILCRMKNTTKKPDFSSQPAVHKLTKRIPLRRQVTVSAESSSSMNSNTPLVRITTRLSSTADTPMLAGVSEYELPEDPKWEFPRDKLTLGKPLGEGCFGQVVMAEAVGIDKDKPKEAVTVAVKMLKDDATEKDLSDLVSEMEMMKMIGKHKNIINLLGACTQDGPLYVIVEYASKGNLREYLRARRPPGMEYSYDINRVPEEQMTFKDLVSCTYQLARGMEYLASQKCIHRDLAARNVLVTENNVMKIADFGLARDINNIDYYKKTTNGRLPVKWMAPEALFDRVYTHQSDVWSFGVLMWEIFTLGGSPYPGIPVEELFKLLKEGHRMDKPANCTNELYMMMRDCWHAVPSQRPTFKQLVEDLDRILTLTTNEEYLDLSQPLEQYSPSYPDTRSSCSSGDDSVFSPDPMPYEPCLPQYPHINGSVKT
UniProt P22607, whole entry, looked up: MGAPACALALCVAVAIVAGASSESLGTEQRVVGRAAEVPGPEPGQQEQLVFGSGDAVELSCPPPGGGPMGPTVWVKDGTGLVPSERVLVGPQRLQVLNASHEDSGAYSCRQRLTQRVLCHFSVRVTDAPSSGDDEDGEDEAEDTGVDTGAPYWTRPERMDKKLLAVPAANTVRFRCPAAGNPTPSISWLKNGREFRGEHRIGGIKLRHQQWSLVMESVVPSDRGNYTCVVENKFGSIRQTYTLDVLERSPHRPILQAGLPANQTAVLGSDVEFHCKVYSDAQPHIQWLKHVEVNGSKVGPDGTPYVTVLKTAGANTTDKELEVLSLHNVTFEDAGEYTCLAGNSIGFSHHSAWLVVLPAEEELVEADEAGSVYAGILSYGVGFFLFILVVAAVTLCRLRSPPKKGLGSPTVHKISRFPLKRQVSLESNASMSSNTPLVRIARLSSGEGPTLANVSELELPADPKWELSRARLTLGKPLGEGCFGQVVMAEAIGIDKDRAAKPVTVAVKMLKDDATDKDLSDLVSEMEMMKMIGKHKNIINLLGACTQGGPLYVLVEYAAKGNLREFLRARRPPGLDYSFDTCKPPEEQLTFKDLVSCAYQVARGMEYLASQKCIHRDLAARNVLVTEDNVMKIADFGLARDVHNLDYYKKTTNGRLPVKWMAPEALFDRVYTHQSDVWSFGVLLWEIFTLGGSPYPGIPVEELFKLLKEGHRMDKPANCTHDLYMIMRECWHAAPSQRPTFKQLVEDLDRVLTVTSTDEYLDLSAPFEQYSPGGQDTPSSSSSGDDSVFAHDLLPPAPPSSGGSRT
UniProt P36888, whole entry: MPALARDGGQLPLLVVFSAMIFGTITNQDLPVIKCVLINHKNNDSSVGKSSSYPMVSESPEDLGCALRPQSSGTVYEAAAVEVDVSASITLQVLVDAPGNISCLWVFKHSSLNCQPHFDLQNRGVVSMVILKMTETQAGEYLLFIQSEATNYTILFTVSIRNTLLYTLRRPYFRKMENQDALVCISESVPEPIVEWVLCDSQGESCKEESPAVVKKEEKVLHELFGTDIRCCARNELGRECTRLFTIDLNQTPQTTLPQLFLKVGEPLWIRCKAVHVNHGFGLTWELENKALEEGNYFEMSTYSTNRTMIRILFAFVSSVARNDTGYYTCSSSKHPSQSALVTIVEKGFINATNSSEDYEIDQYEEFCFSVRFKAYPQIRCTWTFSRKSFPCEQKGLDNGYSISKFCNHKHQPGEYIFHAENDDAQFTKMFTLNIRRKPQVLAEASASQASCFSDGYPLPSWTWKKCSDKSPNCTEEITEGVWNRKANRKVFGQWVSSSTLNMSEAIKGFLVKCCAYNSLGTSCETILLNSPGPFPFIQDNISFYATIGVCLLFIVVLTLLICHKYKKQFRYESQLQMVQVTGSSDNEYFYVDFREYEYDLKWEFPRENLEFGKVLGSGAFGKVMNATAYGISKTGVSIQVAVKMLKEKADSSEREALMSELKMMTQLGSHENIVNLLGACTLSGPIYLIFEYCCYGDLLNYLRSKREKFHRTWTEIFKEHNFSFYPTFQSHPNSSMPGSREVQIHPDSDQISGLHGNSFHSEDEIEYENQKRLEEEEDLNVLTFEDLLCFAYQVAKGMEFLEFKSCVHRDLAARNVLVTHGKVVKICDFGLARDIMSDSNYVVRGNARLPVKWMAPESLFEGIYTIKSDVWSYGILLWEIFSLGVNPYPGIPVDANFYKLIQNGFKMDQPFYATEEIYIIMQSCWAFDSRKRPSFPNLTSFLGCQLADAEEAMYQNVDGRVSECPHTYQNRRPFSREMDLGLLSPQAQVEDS
UniProt P49840: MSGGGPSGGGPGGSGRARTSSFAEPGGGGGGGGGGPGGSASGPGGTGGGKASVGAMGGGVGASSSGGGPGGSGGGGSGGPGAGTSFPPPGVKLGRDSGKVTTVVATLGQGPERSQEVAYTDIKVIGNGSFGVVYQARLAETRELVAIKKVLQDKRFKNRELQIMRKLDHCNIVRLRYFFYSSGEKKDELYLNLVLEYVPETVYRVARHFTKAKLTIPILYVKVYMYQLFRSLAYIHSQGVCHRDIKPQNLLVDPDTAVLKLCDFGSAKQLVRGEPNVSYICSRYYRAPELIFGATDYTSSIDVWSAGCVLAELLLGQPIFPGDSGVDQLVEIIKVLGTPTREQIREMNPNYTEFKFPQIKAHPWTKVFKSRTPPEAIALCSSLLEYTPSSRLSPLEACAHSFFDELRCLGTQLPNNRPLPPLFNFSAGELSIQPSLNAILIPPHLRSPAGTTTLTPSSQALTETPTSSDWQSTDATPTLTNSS

Assays:
Assay in all cases: kinase-Nluc reporter destabilization hit call (1 = scored as downregulated) (binary); higher = compound decreases kinase abundance
Conditions in all cases: K562; 2-18 h
EGFR = EGFR (UniProt P00533)
EGFR_G719S = EGFR_G719S (UniProt P00533)
EGFR_G719S_T790M = EGFR_G719S_T790M (UniProt P00533)
EGFR_L718V = EGFR_L718V (UniProt P00533)
EGFR_L858R = EGFR_L858R (UniProt P00533)
EGFR_L861Q = EGFR_L861Q (UniProt P00533)
EGFR_T790M = EGFR_T790M (UniProt P00533)
EPHA2 = EPHA2 (UniProt P29317)
ERBB3 = ERBB3 (UniProt P21860)
[1] = biological target: ERBB4_R711C (clone: ERBB4_mut) (UniProt Q15303)
ERN1 = ERN1 (UniProt O75460)
FGFR1 = FGFR1 (UniProt P11362)
FGFR2 = FGFR2 (UniProt P21802)
FGFR3 = FGFR3 (UniProt P22607)
FGR = FGR (UniProt P09769)
FLT3 = FLT3 (UniProt P36888)
FYN = FYN (UniProt P06241)
GSK3A = GSK3A (UniProt P49840)
HER2 = HER2 (UniProt P04626)
INSRR = INSRR (UniProt P14616)

Measured: kinase-Nluc reporter destabilization hit call

CCn1c(=O)c(-c2cc[nH]n2)cc2c(C)nc(N)nc21 [Voxtalisib] (10 µM)
inactive: EGFR 0 | EGFR_G719S 0 | EGFR_G719S_T790M 0 | EGFR_L718V 0 | EGFR_L858R 0 | EGFR_L861Q 0 | EGFR_T790M 0 | EPHA2 = 0 | ERBB3 = 0 | [1] 0 | ERN1 = 0 | FGFR1 = 0 | FGFR2 = 0 | FGFR3 = 0 | FGR 0 | FLT3 = 0 | FYN 0 | GSK3A 0 | HER2 = 0 | INSRR 0

Cn1cc(C2=C(c3cccc(N)c3)C(=O)NC2=O)c2ccccc21 (10 µM)
inactive: EGFR 0 | EGFR_G719S 0 | EGFR_G719S_T790M 0 | EGFR_L718V 0 | EGFR_L858R 0 | EGFR_L861Q 0 | EGFR_T790M 0 | EPHA2 = 0 | ERBB3 = 0 | [1] 0 | ERN1 = 0 | FGFR1 = 0 | FGFR2 = 0 | FGFR3 = 0 | FGR 0 | FLT3 = 0 | FYN 0 | GSK3A 0 | HER2 = 0 | INSRR 0

CC(C)N1CCN(c2ccc(Nc3ncc4cc5n(c4n3)C3(CCCCC3)CNC5=O)nc2)CC1 [Lerociclib (dihydrochloride)] (2 µM)
inactive: EGFR 0 | EGFR_G719S 0 | EGFR_G719S_T790M 0 | EGFR_L718V 0 | EGFR_L858R 0 | EGFR_L861Q 0 | EGFR_T790M 0 | EPHA2 = 0 | ERBB3 = 0 | [1] 0 | ERN1 = 0 | FGFR1 = 0 | FGFR2 = 0 | FGFR3 = 0 | FGR 0 | FLT3 = 0 | FYN 0 | GSK3A 0 | HER2 = 0 | INSRR 0

CNC(=O)c1ccccc1Nc1nc(Nc2ccc3c(c2OC)CCC[C@H](N2CCN(CCO)CC2)C3)ncc1Cl (10 µM)
inactive: EGFR 0 | EGFR_G719S 0 | EGFR_G719S_T790M 0 | EGFR_L718V 0 | EGFR_L858R 0 | EGFR_L861Q 0 | EGFR_T790M 0 | EPHA2 = 0 | ERBB3 = 0 | [1] 0 | ERN1 = 0 | FGFR1 = 0 | FGFR2 = 0 | FGFR3 = 0 | FGR 0 | FLT3 = 0 | FYN 0 | GSK3A 0 | HER2 = 0 | INSRR 0

NC(=S)n1[nH]c(-c2ccc([N+](=O)[O-])cc2)c(N=Nc2cccc(Cl)c2)c1=O (2.5 µM)
inactive: EGFR 0 | EGFR_G719S 0 | EGFR_G719S_T790M 0 | EGFR_L718V 0 | EGFR_L858R 0 | EGFR_L861Q 0 | EGFR_T790M 0 | EPHA2 = 0 | ERBB3 = 0 | [1] 0 | ERN1 = 0 | FGFR1 = 0 | FGFR2 = 0 | FGFR3 = 0 | FGR 0 | FLT3 = 0 | FYN 0 | GSK3A 0 | HER2 = 0 | INSRR 0

Cc1cnc(NC2CCOCC2)nc1-n1cnc(C(=O)N[C@H](CN)c2cc(F)cc(Cl)c2)c1 (10 µM)
inactive: EGFR 0 | EGFR_G719S 0 | EGFR_G719S_T790M 0 | EGFR_L718V 0 | EGFR_L858R 0 | EGFR_L861Q 0 | EGFR_T790M 0 | EPHA2 = 0 | ERBB3 = 0 | [1] 0 | ERN1 = 0 | FGFR1 = 0 | FGFR2 = 0 | FGFR3 = 0 | FGR 0 | FLT3 = 0 | FYN 0 | GSK3A 0 | HER2 = 0 | INSRR 0

CCc1ccc(OCC(=O)Nc2ccc(F)c([N+](=O)[O-])c2)cc1 (10 µM)
inactive: EGFR 0 | EGFR_G719S 0 | EGFR_G719S_T790M 0 | EGFR_L718V 0 | EGFR_L858R 0 | EGFR_L861Q 0 | EGFR_T790M 0 | EPHA2 = 0 | ERBB3 = 0 | [1] 0 | ERN1 = 0 | FGFR1 = 0 | FGFR2 = 0 | FGFR3 = 0 | FGR 0 | FLT3 = 0 | FYN 0 | GSK3A 0 | HER2 = 0 | INSRR 0

CN1CCC(c2ccccc2CC(C)(C)Nc2nc(N3CCOCC3)nc(-n3c(C(F)F)nc4ccccc43)n2)CC1 [Zandelisib] (10 µM)
inactive: EGFR 0 | EGFR_G719S 0 | EGFR_G719S_T790M 0 | EGFR_L718V 0 | EGFR_L858R 0 | EGFR_L861Q 0 | EGFR_T790M 0 | EPHA2 = 0 | ERBB3 = 0 | [1] 0 | ERN1 = 0 | FGFR1 = 0 | FGFR2 = 0 | FGFR3 = 0 | FGR 0 | FLT3 = 0 | FYN 0 | GSK3A 0 | HER2 = 0 | INSRR 0

C#Cc1cccc(Nc2ncnc3cc(OC)c(OCCCCCCC(=O)NO)cc23)c1 (2.5 µM)
inactive: EGFR 0 | EGFR_G719S 0 | EGFR_G719S_T790M 0 | EGFR_L718V 0 | EGFR_L858R 0 | EGFR_L861Q 0 | EGFR_T790M 0 | EPHA2 = 0 | ERBB3 = 0 | [1] 0 | ERN1 = 0 | FGFR1 = 0 | FGFR2 = 0 | FGFR3 = 0 | FGR 0 | FLT3 = 0 | FYN 0 | GSK3A 0 | HER2 = 0 | INSRR 0

O=Nc1c2[nH]c3ccccc3nc-2c2ccccc12 [IQ-1S (free acid)] (2.5 µM)
inactive: EGFR 0 | EGFR_G719S 0 | EGFR_G719S_T790M 0 | EGFR_L718V 0 | EGFR_L858R 0 | EGFR_L861Q 0 | EGFR_T790M 0 | EPHA2 = 0 | ERBB3 = 0 | [1] 0 | ERN1 = 0 | FGFR1 = 0 | FGFR2 = 0 | FGFR3 = 0 | FGR 0 | FLT3 = 0 | FYN 0 | GSK3A 0 | HER2 = 0 | INSRR 0

C[C@H](Nc1ncnc2[nH]cnc12)c1cc2ccc(F)cc2nc1-c1ccccn1 (10 µM)
inactive: EGFR 0 | EGFR_G719S 0 | EGFR_G719S_T790M 0 | EGFR_L718V 0 | EGFR_L858R 0 | EGFR_L861Q 0 | EGFR_T790M 0 | EPHA2 = 0 | ERBB3 = 0 | [1] 0 | ERN1 = 0 | FGFR1 = 0 | FGFR2 = 0 | FGFR3 = 0 | FGR 0 | FLT3 = 0 | FYN 0 | GSK3A 0 | HER2 = 0 | INSRR 0

c1cc(NC2CCNCC2)nc(-c2cnc3ccccn23)c1 [IRAK inhibitor 1] (10 µM)
inactive: EGFR 0 | EGFR_G719S 0 | EGFR_G719S_T790M 0 | EGFR_L718V 0 | EGFR_L858R 0 | EGFR_L861Q 0 | EGFR_T790M 0 | EPHA2 = 0 | ERBB3 = 0 | [1] 0 | ERN1 = 0 | FGFR1 = 0 | FGFR2 = 0 | FGFR3 = 0 | FGR 0 | FLT3 = 0 | FYN 0 | GSK3A 0 | HER2 = 0 | INSRR 0

Cc1cc2sc(NC(=O)Cc3ccccc3)nc2cc1Cl (10 µM)
inactive: EGFR 0 | EGFR_G719S 0 | EGFR_G719S_T790M 0 | EGFR_L718V 0 | EGFR_L858R 0 | EGFR_L861Q 0 | EGFR_T790M 0 | EPHA2 = 0 | ERBB3 = 0 | [1] 0 | ERN1 = 0 | FGFR1 = 0 | FGFR2 = 0 | FGFR3 = 0 | FGR 0 | FLT3 = 0 | FYN 0 | GSK3A 0 | HER2 = 0 | INSRR 0

CS(=O)(=O)c1ccc(-c2cnc(N)c(-c3ccc(C(F)(F)F)nc3)c2)cc1 (10 µM)
inactive: EGFR 0 | EGFR_G719S 0 | EGFR_G719S_T790M 0 | EGFR_L718V 0 | EGFR_L858R 0 | EGFR_L861Q 0 | EGFR_T790M 0 | EPHA2 = 0 | ERBB3 = 0 | [1] 0 | ERN1 = 0 | FGFR1 = 0 | FGFR2 = 0 | FGFR3 = 0 | FGR 0 | FLT3 = 0 | FYN 0 | GSK3A 0 | HER2 = 0 | INSRR 0

CCN(CC)c1cc2oc(=O)c(-c3nc4ccccc4o3)cc2cc1C (2.5 µM)
inactive: EGFR 0 | EGFR_G719S 0 | EGFR_G719S_T790M 0 | EGFR_L718V 0 | EGFR_L858R 0 | EGFR_L861Q 0 | EGFR_T790M 0 | EPHA2 = 0 | ERBB3 = 0 | [1] 0 | ERN1 = 0 | FGFR1 = 0 | FGFR2 = 0 | FGFR3 = 0 | FGR 0 | FLT3 = 0 | FYN 0 | GSK3A 0 | HER2 = 0 | INSRR 0

CC(C)(C[C@H](N)C(=O)O)C(F)F [NV-5138 (hydrochloride)] (10 µM)
inactive: EGFR 0 | EGFR_G719S 0 | EGFR_G719S_T790M 0 | EGFR_L718V 0 | EGFR_L858R 0 | EGFR_L861Q 0 | EGFR_T790M 0 | EPHA2 = 0 | ERBB3 = 0 | [1] 0 | ERN1 = 0 | FGFR1 = 0 | FGFR2 = 0 | FGFR3 = 0 | FGR 0 | FLT3 = 0 | FYN 0 | GSK3A 0 | HER2 = 0 | INSRR 0

Cn1cc(C2=C(c3cn(CCCSC(=N)N)c4ccccc34)C(=O)NC2=O)c2ccccc21 [Ro 31-8220 (mesylate)] (2.5 µM)
inactive: EGFR 0 | EGFR_G719S 0 | EGFR_G719S_T790M 0 | EGFR_L718V 0 | EGFR_L858R 0 | EGFR_L861Q 0 | EGFR_T790M 0 | EPHA2 = 0 | ERBB3 = 0 | [1] 0 | ERN1 = 0 | FGFR1 = 0 | FGFR2 = 0 | FGFR3 = 0 | FGR 0 | FLT3 = 0 | FYN 0 | GSK3A 0 | HER2 = 0 | INSRR 0

O=C1NC(=O)/C(=C/c2ccc3nccc(-c4ccncc4)c3c2)S1 (10 µM)
inactive: EGFR 0 | EGFR_G719S 0 | EGFR_G719S_T790M 0 | EGFR_L718V 0 | EGFR_L858R 0 | EGFR_L861Q 0 | EGFR_T790M 0 | EPHA2 = 0 | ERBB3 = 0 | [1] 0 | ERN1 = 0 | FGFR1 = 0 | FGFR2 = 0 | FGFR3 = 0 | FGR 0 | FLT3 = 0 | FYN 0 | GSK3A 0 | HER2 = 0 | INSRR 0

Retrieved by compound from the list above (2):
CC(C)(C[C@H](N)C(=O)O)C(F)F [NV-5138 (hydrochloride)] (10 µM)
inactive: EGFR 0 | EGFR_G719S 0 | EGFR_G719S_T790M 0 | EGFR_L718V 0 | EGFR_L858R 0 | EGFR_L861Q 0 | EGFR_T790M 0 | EPHA2 = 0 | ERBB3 = 0 | [1] 0 | ERN1 = 0 | FGFR1 = 0 | FGFR2 = 0 | FGFR3 = 0 | FGR 0 | FLT3 = 0 | FYN 0 | GSK3A 0 | HER2 = 0 | INSRR 0

Cn1cc(C2=C(c3cn(CCCSC(=N)N)c4ccccc34)C(=O)NC2=O)c2ccccc21 [Ro 31-8220 (mesylate)] (2.5 µM)
inactive: EGFR 0 | EGFR_G719S 0 | EGFR_G719S_T790M 0 | EGFR_L718V 0 | EGFR_L858R 0 | EGFR_L861Q 0 | EGFR_T790M 0 | EPHA2 = 0 | ERBB3 = 0 | [1] 0 | ERN1 = 0 | FGFR1 = 0 | FGFR2 = 0 | FGFR3 = 0 | FGR 0 | FLT3 = 0 | FYN 0 | GSK3A 0 | HER2 = 0 | INSRR 0
